Measurements as given in PubChem BioAssay AID1558 (National Center for Advancing Translational Sciences (NCATS), 2009).
Where “and” joins values, the source holds several entries; their conditions need not be identical. Equal entries are not always repeated. Inconclusive means that the source gave no clear call. Such entries were picked first, then a sample of the others. Where the call is inconclusive, the potency comes from a doubtful curve fit. Calls of active or inactive are those of the source. The call rests on the fitted dose curve; in most records, active means well fitted inhibition curve with a large enough effect; inconclusive means small, poorly fitted or top-dose-only effect; inactive means flat fitted curve, though single readings scatter.

By UniProt entry, the sequences of proteins in these tests, tags left out. Residues count along the entry.
UniProt P10636, whole entry, looked up: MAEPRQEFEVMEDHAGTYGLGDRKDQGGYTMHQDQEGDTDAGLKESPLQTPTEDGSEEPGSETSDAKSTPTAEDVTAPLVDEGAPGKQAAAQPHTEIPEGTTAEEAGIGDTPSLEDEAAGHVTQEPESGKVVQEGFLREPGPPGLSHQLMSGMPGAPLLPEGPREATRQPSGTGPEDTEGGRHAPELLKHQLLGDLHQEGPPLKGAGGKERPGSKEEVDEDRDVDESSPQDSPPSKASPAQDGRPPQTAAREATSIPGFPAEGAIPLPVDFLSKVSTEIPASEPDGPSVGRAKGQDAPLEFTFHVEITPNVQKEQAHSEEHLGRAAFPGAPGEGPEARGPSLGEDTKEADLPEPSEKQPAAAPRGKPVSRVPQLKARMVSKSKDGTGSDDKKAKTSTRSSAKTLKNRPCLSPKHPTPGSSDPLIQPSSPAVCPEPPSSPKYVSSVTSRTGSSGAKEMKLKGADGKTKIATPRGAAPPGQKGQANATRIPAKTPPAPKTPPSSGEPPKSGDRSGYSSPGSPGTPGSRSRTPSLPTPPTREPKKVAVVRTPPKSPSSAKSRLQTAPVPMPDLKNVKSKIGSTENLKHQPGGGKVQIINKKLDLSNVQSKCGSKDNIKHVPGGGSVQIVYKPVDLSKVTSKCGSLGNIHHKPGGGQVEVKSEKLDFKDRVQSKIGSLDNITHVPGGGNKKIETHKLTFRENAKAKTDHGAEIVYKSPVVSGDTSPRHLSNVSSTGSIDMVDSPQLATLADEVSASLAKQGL
UniProt P10636, 561-689 P618L limits assumed: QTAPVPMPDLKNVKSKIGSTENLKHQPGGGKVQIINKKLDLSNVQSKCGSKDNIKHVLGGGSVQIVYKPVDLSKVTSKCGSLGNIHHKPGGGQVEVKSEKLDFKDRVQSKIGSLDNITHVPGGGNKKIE

Target: Microtubule-associated protein tau (Homo sapiens) (UniProt P10636)
Test: Confirmation Concentration-Response Assay for Inhibitors of Tau Fibril Formation, Thioflavin T Binding
Conditions: recombinant tau K18 P301L (four-repeat tau fragment) heparin fibrillization, ThT fluorescence; series mostly up to 100 µM; activity change, negative = inhibition: at the top concentration
How it was run: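 ThT fluorescence (450/510 nm), read 1 hr after adding 30 uM final dye, reported fibril formation in concentration-response format. Before that, 15 uM K18 P301L tau with 0.24 uM Alexa 594-labeled tracer aggregated 6 hr at 37 C with 20 uM heparin and compound, pH 7 acetate buffer.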

Row | Structure (SMILES) | Potency | activity change, negative = inhibition
1 | COc1ccc(Nc2nc(-c3sc(NC(C)=O)nc3C)cs2)cc1 | inconclusive: 50.1 µM [inhibitor, partial curve, poor fit] | 
2 | CCn1c(CSc2nccn2C)nc2cc(C(=O)O)ccc21 | active: 39.8 µM | 
3 | COc1ccc(Cl)cc1NC(=O)c1c(NCc2sccc2C)sc2c1CCCC2 | active: 1 µM | 
4 | COC(=O)c1nn(-c2ccc(OC)cc2)c(=O)c2c(N)sc(C)c12 | inconclusive: 44.7 µM [inhibitor, partial curve, poor fit] | 
5 | Cc1ccc(C(=O)Nc2nc(=O)n(C(=O)C3CC3)s2)cc1 | inconclusive: 8.91 µM [inhibitor, full curve] | 
6 | Cc1cc2c(NC(=O)Nc3ccccc3)cccc2nn1 | inconclusive: 50.1 µM [inhibitor, full curve, poor fit] | 
7 | COC(=O)c1ccccc1NC(=O)CSc1nc2sc3c(c2c(=O)[nH]1)CCCC3 | inconclusive: 39.8 µM [inhibitor, full curve, poor fit] | 
8 | COc1c(Cl)cccc1NC(=O)c1c(NC(=O)Cc2ccccc2)sc2c1CCCC2 |  | inactive: -15.4% [at 57.1 µM]
9 | CCOC(=O)c1nn(-c2ccc(OC)cc2)c(=O)c2c(N)scc12 | active: 631 nM and active: 3.16 µM | 
10 | CC(=O)Nc1ccc(C2=NNC(=Nc3ccc(S(=O)(=O)N4CCOCC4)cc3)SC2)cc1 | inconclusive: 2.51 µM [inhibitor, full curve, poor fit] | 
11 | O=S(=O)(c1ccc2nc(-c3ccco3)c(-c3ccco3)nc2c1)N1CCOCC1 | active: 4.47 µM | 
12 | COC(=O)c1c(NC(=O)CCCOc2ccc(C(C)(C)C)cc2)sc2c1C(C(=O)OC)CC2 (configuration not stated) | inconclusive: 35.5 µM [inhibitor, full curve, poor fit] | 
